Data reported in paper PMC6584639.
No constants are given. Whether binding was seen depends on the method and setting. Binding seen in cells or lysates may run through a third protein. A yes stands for co-enrichment or nearness to the bait. Other partners may have been found. Tags and fused reporters may be left off the sequences shown.

Molecular target: T1, KIF1C-BioID2-HA (full-length KIF1C) (human) (UniProt O43896)
T1 sequence: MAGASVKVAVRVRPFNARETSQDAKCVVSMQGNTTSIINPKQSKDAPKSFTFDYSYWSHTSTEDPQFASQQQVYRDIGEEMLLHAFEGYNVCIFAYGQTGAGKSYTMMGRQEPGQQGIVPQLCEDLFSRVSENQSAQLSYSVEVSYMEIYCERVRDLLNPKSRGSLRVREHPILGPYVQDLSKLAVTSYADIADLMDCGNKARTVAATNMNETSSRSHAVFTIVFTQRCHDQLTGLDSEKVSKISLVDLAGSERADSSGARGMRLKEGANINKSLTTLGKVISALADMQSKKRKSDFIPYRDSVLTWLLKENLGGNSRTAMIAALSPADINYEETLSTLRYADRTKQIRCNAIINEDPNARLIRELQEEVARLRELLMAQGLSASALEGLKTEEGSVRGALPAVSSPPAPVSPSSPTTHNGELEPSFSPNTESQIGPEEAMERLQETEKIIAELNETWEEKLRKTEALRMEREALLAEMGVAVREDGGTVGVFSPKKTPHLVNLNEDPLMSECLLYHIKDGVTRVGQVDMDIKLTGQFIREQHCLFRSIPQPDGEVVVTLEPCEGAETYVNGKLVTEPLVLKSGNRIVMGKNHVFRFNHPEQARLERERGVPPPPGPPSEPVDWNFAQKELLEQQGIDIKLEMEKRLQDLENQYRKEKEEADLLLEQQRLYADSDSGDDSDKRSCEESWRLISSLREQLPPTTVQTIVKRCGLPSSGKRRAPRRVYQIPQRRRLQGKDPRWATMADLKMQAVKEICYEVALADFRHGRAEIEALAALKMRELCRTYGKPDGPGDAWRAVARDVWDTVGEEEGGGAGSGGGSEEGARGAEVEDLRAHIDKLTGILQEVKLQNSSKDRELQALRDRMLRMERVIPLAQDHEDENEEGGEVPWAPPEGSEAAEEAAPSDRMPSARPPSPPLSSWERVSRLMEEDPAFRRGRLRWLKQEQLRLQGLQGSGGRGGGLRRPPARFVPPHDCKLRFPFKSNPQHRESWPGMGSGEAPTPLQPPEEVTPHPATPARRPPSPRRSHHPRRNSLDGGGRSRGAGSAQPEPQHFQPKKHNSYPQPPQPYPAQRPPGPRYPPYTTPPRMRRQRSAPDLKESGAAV
Assay: proximity labelling; BioID: KIF1C-BioID2-HA or KIF1CΔS-BioID2-HA in RPE1 cells, 50 µM biotin for 12 h, streptavidin beads, mass spectrometry

binding: binds
B1: Hook3 (endogenous, RPE1 cells) (protein, UniProt Q86VS8 1-718)
chain: MFSVESLERAELCESLLTWIQTFNVDAPCQTVEDLTNGVVMAQVLQKIDPAYFDENWLNRIKTEVGDNWRLKISNLKKILKGILDYNHEILGQQINDFTLPDVNLIGEHSDAAELGRMLQLILGCAVNCEQKQEYIQAIMMMEESVQHVVMTAIQELMSKESPVSAGNDAYVDLDRQLKKTTEELNEALSAKEEIAQRCHELDMQVAALQEEKSSLLAENQVLMERLNQSDSIEDPNSPAGRRHLQLQTQLEQLQEETFRLEAAKDDYRIRCEELEKEISELRQQNDELTTLADEAQSLKDEIDVLRHSSDKVSKLEGQVESYKKKLEDLGDLRRQVKLLEEKNTMYMQNTVSLEEELRKANAARSQLETYKRQVVELQNRLSEESKKADKLDFEYKRLKEKVDSLQKEKDRLRTERDSLKETIEELRCVQAQEGQLTTQGLMPLGSQESSDSLAAEIVTPEIREKLIRLQHENKMLKLNQEGSDNEKIALLQSLLDDANLRKNELETENRLVNQRLLEVQSQVEELQKSLQDQGSKAEDSVLLKKKLEEHLEKLHEANNELQKKRAIIEDLEPRFNNSSLKIEELQEALRKKEEEMKQMEERYKKYLEKAKSVIRTLDPKQNQGAAPEIQALKNQLQERDRLFHSLEKEYEKTKSQREMEEKYIVSAWYNMGMTLHKKAAEDRLASTGSGQSFLARQRQATSSRRSYPGHVQPATAR
